Experimental data: PubChem BioAssay AID1159579 (Peter MacCallum Cancer Centre, 2015)

Screen: 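Retest candidate lymphatic endothelial migration regulators using several independent siRNAs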 (follow-up of hits)
Cells: human dermal lymphatic endothelial cells
Reagent: single siRNA against human genes, 25 nM
Detection: 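Scratch wound imaging measuring area filled by moving cells plus nuclei number, averaged over two wells and scaled to mock-transfected controls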
Reading the numbers: migration relative to mock: higher = more migration into the scratch; mean nuclei count: higher = more cells remaining
Active means: 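a ratio of at most 0.6 or at least 1.3 marks altered migration and an active call; a mean nuclei count under 3300 forces an inactive call regardless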
Calls: active = migration changed (impaired or accelerated); inactive = no migration change, or too few cells
In all, the deposit lists about 2,000 reagents; below is an unselected part. 549 of them (27%) were called active. 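Some migration ratios are negative; siRNAs with too few cells are inactive whatever their migration ratio.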 The numbers tell different reagents against one gene apart. Not all columns of the deposit are shown. Not stated in the record: the time to read-out.

no.	target	reagent	migration relative to mock	mean nuclei count	activity call
1	CYSRT1	1	0.83	6222	inactive
2	CYSRT1	2	0.94	5410	inactive
3	CYSRT1	3	1.04	5936	inactive
4	CYSRT1	4	0.92	5533	inactive
5	CADM1	1	0.65	4644	inactive
6	CADM1	2	0.89	5160	inactive
7	CADM1	3	0.92	5740	inactive
8	CADM1	4	0.55	4541	active
9	SFSWAP	1	0.57	5041	active
10	SFSWAP	2	0.72	5254	inactive
11	SFSWAP	3	1	5872	inactive
12	SFSWAP	4	1.09	6496	inactive

The list goes on (2 carried over from the part before).
no.	target	reagent	migration relative to mock	mean nuclei count	activity call
11	SFSWAP	3	1	5872	inactive
12	SFSWAP	4	1.09	6496	inactive
13	EVA1B	1	1	6748	inactive
14	EVA1B	2	1.25	5850	inactive
15	EVA1B	3	0.72	6685	inactive
16	EVA1B	4	0.62	5442	inactive
17	EPOR	1	0.26	4304	active
18	EPOR	2	0.68	5072	inactive
19	EPOR	3	0.44	5024	active
20	EPOR	4	0.88	6776	inactive
21	MTR	1	0.8	6194	inactive
22	MTR	2	0.65	5560	inactive
23	MTR	3	0.8	5711	inactive
24	MTR	4	0.96	7451	inactive
25	CEP44	1	0.9	5806	inactive
26	CEP44	2	0.91	6344	inactive
27	CEP44	3	1.29	4746	inactive
28	CEP44	4	0.93	5784	inactive
